Test results taken from US8524665B2, “Use of secretin in treatments of disorders associated with the amygdala” (The McLean Hospital Corporation, priority 2003, dated 2013).
For some of these results: At least one peptide structure holds a part that was inferred or is arguable (an end, a ring closure or a residue). Some entries share one result that the patent states for a list of compounds.

Assays:
[1] = test system: dopamine and its metabolites; conditions: central administration; cited from earlier work
[2] = Whole brain T2 measures to check for a global metabolic effect; assay type: in vivo, human; conditions: healthy subjects, p=0.38
amygdala [3] = conditions: cited from earlier work
[4] = 126 autistic children, three intermittent infusions over six weeks; cited from earlier work
amygdala [5] = test: fMRI BOLD amygdalar activation while viewing affective faces, post- minus pre-treatment subtraction analysis; assay type: in vivo, human
GABAergic neurons = conditions: rat cerebellum; cited from earlier work
[6] = test system: Tyrosine hydroxlyase (TH); conditions: PC12 cells of the rat; cited from earlier work

## CC(C)C[C@H](NC(=O)CNC(=O)[C@H](CCC(N)=O)NC(=O)[C@H](CC(C)C)NC(=O)[C@H](CC(C)C)NC(=O)[C@H](CCCNC(=N)N)NC(=O)[C@H](CCC(N)=O)NC(=O)[C@H](CC(C)C)NC(=O)[C@H](CCCNC(=N)N)NC(=O)[C@H](C)NC(=O)CNC(=O)[C@H](CCC(=O)O)NC(=O)[C@H](CCCNC(=N)N)NC(=O)[C@H](CC(C)C)NC(=O)[C@H](CCCNC(=N)N)NC(=O)[C@H](CO)NC(=O)[C@H](CC(C)C)NC(=O)[C@H](CCC(=O)O)NC(=O)[C@H](CO)NC(=O)[C@@H](NC(=O)[C@H](Cc1ccccc1)NC(=O)[C@@H](NC(=O)CNC(=O)[C@H](CC(=O)O)NC(=O)[C@H](CO)NC(=O)[C@@H](N)Cc1c[nH]cn1)[C@@H](C)O)[C@@H](C)O)C(=O)N[C@H](C(N)=O)C(C)C [Secretin, secretin]
[1]
  dopamine and its metabolites within cerebral cortex, striatum and pons/medulla: increased
[2]
  whole brain T2, pre/post secretin administration: No significant differences
Amygdala [3]; in vivo
  Fos activation in the central amygdala: Fos activation
Amygdala [3]; one hour following administration
  amygdala gene expression: significant changes
[4]
  social functioning: significant improvement
Amygdala [5]; fear condition, one hour after infusion
  activation in the left amygdala, treatment-baseline subtraction: non-significant increase
Amygdala [5]; fear condition, one hour after infusion, MNI coordinates 25, −7, −11
  activation in the right amygdala, treatment-baseline subtraction: significant (p=0.001) activation
Amygdala [5]; viewing happy or neutral faces
  amygdala activation differences between treatment conditions: No significant differences
GABAergic neurons
  effect on GABAergic neurons: selectively facilitates

## vasoactive intestinal polypeptide [vasoactive intestinal polypeptide (VIP)]
[6]
  increase in TH concentration: 2 to 3 fold
